These results are taken from the supplement of paper PMC4604168 (melanoma cell lines).

The structures appear in SMILES notation. The list shows a part of the results. Many values rest on one well or one pass, so single values are uncertain.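 Cells were imaged in 1,536-well plates, and nuclei stained with an antibody against cleaved PARP were counted against all DNA-stained nuclei to give the apoptosis fraction. Screening doses were chosen to leave most cells alive, and resting and induced cleaved-PARP levels differ strongly between cell lines.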

Test in all cases: cleaved PARP positive nuclei fraction relative to DMSO control; melanoma cells; higher = more apoptosis
Settings in all cases: library dose: low library concentration; 72 h

The test system of assay [1] is MZ2-MEL.
Assay [2] concerns MeWo.
The subject of assay [3] is RPMI7951.
Assay [4] concerns RVH-421.
Assay [5] concerns SkMel28.
The test system of assay [6] is SkMel2.
Assay [7] deals with SkMel30.
In assay [8] the test system is UACC62.
The subject of assay [9] is WM115.
Assay [10] concerns WM1716.
For assay [11], the system named is WM1745.
Assay [12] deals with WM3526.
Assay [13] relates to WM3619.
In assay [14] the test system is WM451Lu.

With `Cc1ccc(Nc2nccc(N(C)c3ccc4c(C)n(C)nc4c3)n2)cc1S(N)(=O)=O` [Pazopanib] + CCCCCCCCc1ccc(CCC(N)(CO)CO)cc1 [fingolimod] (first compound 0.4 µM, partner dose 2 µM), the “cleaved PARP positive nuclei fraction” value worked out at 55.9% in assay [1]; 78.9% in assay [2]; 169% in assay [3]; 193% in assay [4]; 83.2% in assay [5]; 113% in assay [6]. In addition, the “cleaved PARP positive nuclei fraction” value in assay [7] was 108%; in assay [8] it was 97.1%; in assay [9], 35.5%; in assay [10], 193%; in assay [11], 97.6%; in assay [12], 91.3%. Also, the “cleaved PARP positive nuclei fraction” value in [13] was 108%; in assay [14], 66.5%.
Consider `CCCCCCCCCCCCCCCCCCOP(=O)([O-])OC1CC[N+](C)(C)CC1` [Perifosine] + CN(c1ncccc1CNc1nc(Nc2ccc3c(c2)CC(=O)N3)ncc1C(F)(F)F)S(C)(=O)=O [PF562271] (first compound 0.4 µM, partner dose 0.08 µM), for which the “cleaved PARP positive nuclei fraction” value in [1] was 95%; in assay [2], 51.1%; in assay [3], 147%; in assay [4] it was 260%; in assay [5] it was 46.1%; in [6], 84.5%. In addition, the “cleaved PARP positive nuclei fraction” value stood at 51.9% in assay [7]; 161% in assay [8]; 234% in [9]; 65.8% in [10]; 117% in assay [11]; 21% in assay [12]. Moreover, the “cleaved PARP positive nuclei fraction” value in assay [13] turned out to be 72.4%; in [14] it was 205%.
On to `Cc1cc(Nc2cc(N3CCN(C)CC3)nc(Sc3ccc(NC(=O)C4CC4)cc3)n2)n[nH]1` [Tozasertib] + C[C@]1(c2nc3c(C(N)=O)cccc3[nH]2)CCCN1 [Veliparib] (first compound 0.006 µM, partner dose 1.4 µM), for which the “cleaved PARP positive nuclei fraction” value in assay [1] amounted to 166%; in assay [2] it was 87.3%; in [3], 118%; in assay [4], 37.3%; in [5], 313%; in assay [6], 141%. The “cleaved PARP positive nuclei fraction” value in [7] was 233%; in assay [8], 87%; in assay [9], 112%; in [10], 44.4%; in [11] it was 117%; in assay [12], 20.8%. Also, the figures for the “cleaved PARP positive nuclei fraction” value in [13] and in assay [14] were 137% and 77.3%, respectively.
Take `N#CC[C@H](C1CCCC1)n1cc(-c2ncnc3[nH]ccc23)cn1` [ruxolitinib] + Cc1nc(Nc2ncc(C(=O)Nc3c(C)cccc3Cl)s2)cc(N2CCN(CCO)CC2)n1 [dasatanib] (first compound 1 µM, partner dose 0.004 µM): the “cleaved PARP positive nuclei fraction” value came out at 160% in assay [1]; 88.6% in assay [2]; 131% in [3]; 191% in assay [4]; 84.7% in assay [5]; 85.5% in assay [6]. Further, the “cleaved PARP positive nuclei fraction” value came out at 79.8% in assay [7]; 287% in assay [8]; 234% in assay [9]; 77.4% in assay [10]; 144% in assay [11]; 86.9% in [12]. The “cleaved PARP positive nuclei fraction” value in [13] was 92.6%; in assay [14], 100%.
As for `O=c1[nH]nc(Sc2ncc([N+](=O)[O-])s2)n1-c1ccc2c(c1)OCCO2` + O=C(O)[C@@H]1[O][Sb](=[O])([O][Sb]2(=[O])[O][C@H]([C@H](O)CO)[C@H](O)[C@H](C(=O)O)[O]2)[O][C@H]([C@H](O)CO)[C@@H]1O [stibogluconate] (first compound 0.2 µM, partner dose 2 µM), the “cleaved PARP positive nuclei fraction” value in [1] was determined as 113%; in [2], 81.4%; in assay [3] it was 141%; in assay [4], 57.5%; in [5], 152%; in assay [6] it was 67.5%. The “cleaved PARP positive nuclei fraction” value in assay [7] was 66.5%; in assay [8], 43.1%; in [9], 58.9%; in assay [10], 90.9%; in assay [11], 107%; in assay [12], 91.1%. Besides, the “cleaved PARP positive nuclei fraction” value was 106% in assay [13] and 92.6% in assay [14].
On to `CC[C@]1(O)C[C@H]2CN(CCc3c([nH]c4ccccc34)[C@@](C(=O)OC)(c3cc4c(cc3OC)N(C=O)[C@H]3[C@@](O)(C(=O)OC)[C@H](OC(C)=O)[C@]5(CC)C=CCN6CC[C@]43[C@@H]65)C2)C1` [vincristine] + CC(=O)c1c(C)c2cnc(Nc3ccc(N4CCNCC4)cn3)nc2n(C2CCCC2)c1=O [palbociclib] (first compound 0.0001 µM, partner dose 0.04 µM), for which the “cleaved PARP positive nuclei fraction” value in assay [1] is 52.2%; in [2], 177%; in assay [3], 199%; in assay [4] it was 85.3%; in [5] it was 148%; in assay [6], 70.7%. In addition, the “cleaved PARP positive nuclei fraction” value is 150% in assay [7]; 419% in assay [8]; 335% in assay [9]; 208% in assay [10]; 148% in [11]; 99.1% in assay [12]. Further, the entries for the “cleaved PARP positive nuclei fraction” value in [13] and in assay [14] were 172% and 108%, respectively.
`O=C(/C=C/c1cccnc1)NCCCCC1CCN(C(=O)c2ccccc2)CC1` + CS(=O)(=O)CCNCc1ccc(-c2ccc3ncnc(Nc4ccc(OCc5cccc(F)c5)c(Cl)c4)c3c2)o1 [lapatinib] (first compound 0.01 µM, partner dose 0.8 µM): the “cleaved PARP positive nuclei fraction” value in assay [1] worked out at 684%; in assay [2], 322%; in [3], 94.4%; in [4] it was 190%; in assay [5], 86.8%; in [6], 2210%. Also, the “cleaved PARP positive nuclei fraction” value was determined as 40.8% in assay [7]; 168% in [8]; 126% in assay [9]; 66.2% in assay [10]; 74.6% in [11]; 45.5% in assay [12]. Also, the results for the “cleaved PARP positive nuclei fraction” value in [13] and in assay [14] were 202% and 117%, respectively.
